In US20240201168A1:
These are yes or no findings as the source states them, for the method shown. In cells and extracts the contact can be indirect. Some entries that bind do so weakly or less than the wild type. Sequences can lack the tags named with a protein.

Columns and labels:
periostin (human) [1] = biological target: T1, periostin (human) (UniProt Q15063); assay: HaloTag pull-down of the NINJ2 complex, LC-MS/MS
T1 sequence: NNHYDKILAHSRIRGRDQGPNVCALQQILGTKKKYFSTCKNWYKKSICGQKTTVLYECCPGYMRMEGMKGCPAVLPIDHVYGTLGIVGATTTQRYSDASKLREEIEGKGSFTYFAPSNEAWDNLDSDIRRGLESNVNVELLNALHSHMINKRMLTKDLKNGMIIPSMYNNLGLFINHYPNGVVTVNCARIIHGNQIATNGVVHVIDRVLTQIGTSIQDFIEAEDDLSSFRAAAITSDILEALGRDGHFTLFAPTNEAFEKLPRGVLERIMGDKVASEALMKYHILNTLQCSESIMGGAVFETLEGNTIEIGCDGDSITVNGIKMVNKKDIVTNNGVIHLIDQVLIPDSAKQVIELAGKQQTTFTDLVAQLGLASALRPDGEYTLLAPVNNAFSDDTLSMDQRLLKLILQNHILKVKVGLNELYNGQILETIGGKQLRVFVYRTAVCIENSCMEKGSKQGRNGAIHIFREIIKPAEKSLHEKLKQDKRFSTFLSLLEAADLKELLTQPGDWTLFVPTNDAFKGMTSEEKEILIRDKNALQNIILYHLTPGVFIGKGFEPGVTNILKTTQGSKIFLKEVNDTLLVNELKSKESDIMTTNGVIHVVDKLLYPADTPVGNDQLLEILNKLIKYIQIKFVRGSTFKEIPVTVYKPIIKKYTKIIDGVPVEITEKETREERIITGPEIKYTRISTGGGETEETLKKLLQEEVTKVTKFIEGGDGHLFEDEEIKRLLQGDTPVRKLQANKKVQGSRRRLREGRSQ

periostin (human) [2] = biological target: T1, periostin (human); assay: HaloTag pull-down from stable NINJ2-HaloTag MKN-74 cells, immunoblotting (co-IP)

binding (periostin (human) [1]): binds
binding (periostin (human) [2]): binds
B1: NINJ2-HaloTag (NINJ2, nerve injury-induced protein 2; Ninjurin 2, with HaloTag, stably expressed in MKN-74 cells) (protein, human, UniProt Q9NZG7 1-142, looked up, not shown: large carriers)
chain: MESARENIDLQPGSSDPRSQPINLNHYATKKSVAESMLDVALFMSNAMRLKAVLEQGPSSHYYTTLVTLISLSLLLQVVIGVLLVVIARLNLNEVEKQWRLNQLNNAATILVFFTVVINVFITAFGAHKTGFLAARASRNPL
